The list shows a part of the results. Many values rest on one well or one pass, so single values are uncertain.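 Cells were imaged in 1,536-well plates, and nuclei stained with an antibody against cleaved PARP were counted against all DNA-stained nuclei to give the apoptosis fraction. Screening doses were chosen to leave most cells alive, and resting and induced cleaved-PARP levels differ strongly between cell lines.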
Experiments:
Test in all cases: cleaved PARP positive nuclei fraction relative to DMSO control; melanoma cells; higher = more apoptosis
Conditions in all cases: library dose: low library concentration; 72 h
COLO792 = test system: COLO792
COLO800 = test system: COLO800
COLO829 = test system: COLO829
G361 = test system: G361
IPC-298 = test system: IPC-298
IST-MEL1 = test system: IST-MEL1
LB2518-MEL = test system: LB2518-MEL
LOXIMVI = test system: LOXIMVI
MEL-HO = test system: MEL-HO

C[C@]1(O)C[C@@H](c2nc(-c3ccc4ccc(-c5ccccc5)nc4c3)c3c(N)nccn32)C1 + CN(C)S(=O)(=O)c1ccc2c(c1)/C(=C/c1cc3c([nH]1)CCCC3)C(=O)N2 [SU6656] (first compound 0.4 µM, partner dose 0.4 µM)
cleaved PARP positive nuclei fraction (COLO792): 58.9%
cleaved PARP positive nuclei fraction (COLO800): 74.7%
cleaved PARP positive nuclei fraction (COLO829): 120%
cleaved PARP positive nuclei fraction (G361): 74.5%
cleaved PARP positive nuclei fraction (IPC-298): 100%
cleaved PARP positive nuclei fraction (IST-MEL1): 73.1%
cleaved PARP positive nuclei fraction (LB2518-MEL): 123%
cleaved PARP positive nuclei fraction (LOXIMVI): 112%
cleaved PARP positive nuclei fraction (MEL-HO): 70.6%

NC1(c2ccc(-c3nc4ccn5c(=O)[nH]nc5c4cc3-c3ccccc3)cc2)CCC1 + O=C(CCCCCCC(=O)Nc1ccccc1)NO [vorinostat] (first compound 0.4 µM, partner dose 0.08 µM)
cleaved PARP positive nuclei fraction (COLO792): 112%
cleaved PARP positive nuclei fraction (COLO800): 86.3%
cleaved PARP positive nuclei fraction (COLO829): 146%
cleaved PARP positive nuclei fraction (G361): 118%
cleaved PARP positive nuclei fraction (IPC-298): 44.9%
cleaved PARP positive nuclei fraction (IST-MEL1): 51.7%
cleaved PARP positive nuclei fraction (LB2518-MEL): 137%
cleaved PARP positive nuclei fraction (LOXIMVI): 51%
cleaved PARP positive nuclei fraction (MEL-HO): 84.9%

CC(=O)O[C@@]12CO[C@@H]1C[C@H](O)[C@@]1(C)C(=O)[C@H](O)C3=C(C)[C@@H](OC(=O)[C@H](O)[C@@H](NC(=O)OC(C)(C)C)c4ccccc4)C[C@@](O)([C@@H](OC(=O)c4ccccc4)[C@H]21)C3(C)C [Docetaxel] + Cn1cncc1[C@@](N)(c1ccc(Cl)cc1)c1ccc2c(c1)c(-c1cccc(Cl)c1)cc(=O)n2C [tipifarnib] (first compound 0.0001 µM, partner dose 0.01 µM)
cleaved PARP positive nuclei fraction (COLO792): 593%
cleaved PARP positive nuclei fraction (COLO800): 231%
cleaved PARP positive nuclei fraction (COLO829): 501%
cleaved PARP positive nuclei fraction (G361): 1040%
cleaved PARP positive nuclei fraction (IPC-298): 249%
cleaved PARP positive nuclei fraction (IST-MEL1): 177%
cleaved PARP positive nuclei fraction (LB2518-MEL): 196%
cleaved PARP positive nuclei fraction (LOXIMVI): 364%
cleaved PARP positive nuclei fraction (MEL-HO): 107%

Cn1cnc2c(F)c(Nc3ccc(Br)cc3Cl)c(C(=O)NOCCO)cc21 [selumetinib] + COc1cc2c(Oc3ccc4[nH]c(C)cc4c3F)ncnc2cc1OCCCN1CCCC1 [cediranib] (first compound 0.015 µM, partner dose 0.4 µM)
cleaved PARP positive nuclei fraction (COLO792): 153%
cleaved PARP positive nuclei fraction (COLO800): 59.3%
cleaved PARP positive nuclei fraction (COLO829): 59%
cleaved PARP positive nuclei fraction (G361): 64.8%
cleaved PARP positive nuclei fraction (IPC-298): 68.1%
cleaved PARP positive nuclei fraction (IST-MEL1): 347%
cleaved PARP positive nuclei fraction (LB2518-MEL): 427%
cleaved PARP positive nuclei fraction (LOXIMVI): 102%
cleaved PARP positive nuclei fraction (MEL-HO): 66%

CN(c1ncccc1CNc1nc(Nc2ccc3c(c2)CC(=O)N3)ncc1C(F)(F)F)S(C)(=O)=O + C[C@@H]1CCN(C(=O)CC#N)C[C@@H]1N(C)c1ncnc2[nH]ccc12 [CP690550] (first compound 0.08 µM, partner dose 1 µM)
cleaved PARP positive nuclei fraction (COLO792): 150%
cleaved PARP positive nuclei fraction (COLO800): 23.3%
cleaved PARP positive nuclei fraction (COLO829): 112%
cleaved PARP positive nuclei fraction (G361): 74.3%
cleaved PARP positive nuclei fraction (IPC-298): 182%
cleaved PARP positive nuclei fraction (IST-MEL1): 66.4%
cleaved PARP positive nuclei fraction (LB2518-MEL): 204%
cleaved PARP positive nuclei fraction (LOXIMVI): 142%
cleaved PARP positive nuclei fraction (MEL-HO): 141%

Cn1sc(=O)n(Cc2ccccc2)c1=O + CC1(C)NC(=O)N(c2ccc([N+](=O)[O-])c(C(F)(F)F)c2)C1=O [nilutamide] (first compound 0.4 µM, partner dose 1 µM)
cleaved PARP positive nuclei fraction (COLO792): 70.1%
cleaved PARP positive nuclei fraction (COLO800): 85.6%
cleaved PARP positive nuclei fraction (COLO829): 79.1%
cleaved PARP positive nuclei fraction (G361): 142%
cleaved PARP positive nuclei fraction (IPC-298): 90.1%
cleaved PARP positive nuclei fraction (IST-MEL1): 91.7%
cleaved PARP positive nuclei fraction (LB2518-MEL): 288%
cleaved PARP positive nuclei fraction (LOXIMVI): 144%
cleaved PARP positive nuclei fraction (MEL-HO): 72.3%

CC1(C)CCC(c2ccc(Cl)cc2)=C(CN2CCN(c3ccc(C(=O)NS(=O)(=O)c4ccc(N[C@H](CCN5CCOCC5)CSc5ccccc5)c(S(=O)(=O)C(F)(F)F)c4)cc3)CC2)C1 + NC(=O)Nc1cc(-c2cccc(F)c2)sc1C(=O)N[C@H]1CCCNC1 [AZD7762] (first compound 0.4 µM, partner dose 0.02 µM)
cleaved PARP positive nuclei fraction (COLO792): 353%
cleaved PARP positive nuclei fraction (COLO800): 184%
cleaved PARP positive nuclei fraction (COLO829): 136%
cleaved PARP positive nuclei fraction (G361): 159%
cleaved PARP positive nuclei fraction (IPC-298): 137%
cleaved PARP positive nuclei fraction (IST-MEL1): 76.3%
cleaved PARP positive nuclei fraction (LB2518-MEL): 119%
cleaved PARP positive nuclei fraction (LOXIMVI): 127%
cleaved PARP positive nuclei fraction (MEL-HO): 159%

Cn1sc(=O)n(Cc2ccccc2)c1=O + O=C(O)c1ccc(-c2c[nH]c3ncc(-c4ccccc4)cc23)cc1C1CCCC1 [GSK650394] (first compound 0.4 µM, partner dose 0.16 µM)
cleaved PARP positive nuclei fraction (COLO792): 128%
cleaved PARP positive nuclei fraction (COLO800): 237%
cleaved PARP positive nuclei fraction (COLO829): 126%
cleaved PARP positive nuclei fraction (G361): 91.3%
cleaved PARP positive nuclei fraction (IPC-298): 22.5%
cleaved PARP positive nuclei fraction (IST-MEL1): 104%
cleaved PARP positive nuclei fraction (LB2518-MEL): 60.7%
cleaved PARP positive nuclei fraction (LOXIMVI): 168%
cleaved PARP positive nuclei fraction (MEL-HO): 95%

NC(=O)c1ccc(N(C(N)=O)c2c(F)cccc2F)nc1-c1ccc(F)cc1F + C[C@@H]1CCN(C(=O)CC#N)C[C@@H]1N(C)c1ncnc2[nH]ccc12 [CP690550] (first compound 0.4 µM, partner dose 1 µM)
cleaved PARP positive nuclei fraction (COLO792): 88.7%
cleaved PARP positive nuclei fraction (COLO800): 86.5%
cleaved PARP positive nuclei fraction (COLO829): 63.2%
cleaved PARP positive nuclei fraction (G361): 108%
cleaved PARP positive nuclei fraction (IPC-298): 88.3%
cleaved PARP positive nuclei fraction (IST-MEL1): 133%
cleaved PARP positive nuclei fraction (LB2518-MEL): 82.2%
cleaved PARP positive nuclei fraction (LOXIMVI): 38.1%
cleaved PARP positive nuclei fraction (MEL-HO): 60.5%

NC(=O)c1ccc(N(C(N)=O)c2c(F)cccc2F)nc1-c1ccc(F)cc1F + COc1cc(Nc2ncc(F)c(Nc3ccc4c(n3)NC(=O)C(C)(C)O4)n2)cc(OC)c1OC [Tamatinib] (first compound 0.4 µM, partner dose 0.4 µM)
cleaved PARP positive nuclei fraction (COLO792): 135%
cleaved PARP positive nuclei fraction (COLO800): 52.9%
cleaved PARP positive nuclei fraction (COLO829): 95.7%
cleaved PARP positive nuclei fraction (G361): 102%
cleaved PARP positive nuclei fraction (IPC-298): 134%
cleaved PARP positive nuclei fraction (IST-MEL1): 87.7%
cleaved PARP positive nuclei fraction (LB2518-MEL): 146%
cleaved PARP positive nuclei fraction (LOXIMVI): 46.6%
cleaved PARP positive nuclei fraction (MEL-HO): 49.1%

CCCCCCCCc1ccc(CCC(N)(CO)CO)cc1 [fingolimod] + CN(C)S(=O)(=O)c1ccc2c(c1)/C(=C/c1cc3c([nH]1)CCCC3)C(=O)N2 [SU6656] (first compound 2 µM, partner dose 0.4 µM)
cleaved PARP positive nuclei fraction (COLO792): 112%
cleaved PARP positive nuclei fraction (COLO800): 109%
cleaved PARP positive nuclei fraction (COLO829): 133%
cleaved PARP positive nuclei fraction (G361): 68.4%
cleaved PARP positive nuclei fraction (IPC-298): 41.1%
cleaved PARP positive nuclei fraction (IST-MEL1): 186%
cleaved PARP positive nuclei fraction (LB2518-MEL): 106%
cleaved PARP positive nuclei fraction (LOXIMVI): 84.7%
cleaved PARP positive nuclei fraction (MEL-HO): 38.8%
